Source: publication PMC7862700
This is one part of the list. Construct or isoform of the protein are uncertain.

These sequences were tested against T1, ETV4 (UniProt P43268) (assay: DAPPL (digital affinity profiling via proximity ligation, sequencing)). Conditions: 10 mM Tris-HCl pH 7.5, 50 mM NaCl, 1 mM DTT, 4% glycerol, room temperature, 30 min; GST-TFs on glutathione beads, 16-mer random dsDNA library, 0.1% …; high values mean tight binding; double strand, one strand shown; scale: fold enrichment (6-mer frequency, TF over GST control).
T1 sequence: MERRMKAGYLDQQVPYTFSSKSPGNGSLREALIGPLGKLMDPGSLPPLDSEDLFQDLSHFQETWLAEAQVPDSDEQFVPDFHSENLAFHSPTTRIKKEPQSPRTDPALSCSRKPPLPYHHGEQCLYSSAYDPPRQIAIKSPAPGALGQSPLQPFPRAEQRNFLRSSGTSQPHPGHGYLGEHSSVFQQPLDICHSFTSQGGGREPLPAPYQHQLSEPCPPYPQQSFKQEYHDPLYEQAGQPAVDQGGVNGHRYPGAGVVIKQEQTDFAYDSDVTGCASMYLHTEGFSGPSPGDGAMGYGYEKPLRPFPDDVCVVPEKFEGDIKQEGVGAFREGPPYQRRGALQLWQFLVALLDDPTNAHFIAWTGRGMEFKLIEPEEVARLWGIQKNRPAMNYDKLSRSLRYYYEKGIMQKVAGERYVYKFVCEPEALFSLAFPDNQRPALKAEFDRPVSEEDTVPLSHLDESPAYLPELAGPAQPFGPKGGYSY

| Sequence | binding signal |
| --- | --- |
| CCTCAC | 1.29 |
| ATGTGT | 1.12 |
| CAATCA | 1.03 |
| GGCCTA | 1.35 |
| GATATA | 1.04 |
| CTTGAC | 1.24 |
| ACATGG | 1.05 |
| ATACCC | 1.18 |
| CGGATA | 1.25 |
| TCCATC | 1.17 |
| GCGATG | 1.25 |
| GGGCTA | 1.06 |
| AATTGG | 1.35 |
| CGCGTC | 1.3 |
| CCTGGT | 1.43 |
| TTGGTG | 1.26 |
| CCCTCG | 1.26 |
| GCCTCG | 1.35 |
| CCGACC | 1.51 |
| TGCGCG | 1.11 |

2 records drawn at random from those above, as already listed:

| Sequence | binding signal |
| --- | --- |
| GGCCTA | 1.35 |
| GCGATG | 1.25 |

(cont.)

| Sequence | binding signal |
| --- | --- |
| GCTTTA | 1.07 |
| GTTTAC | 1.08 |
| TATAAC | 1.27 |
| CCTGCA | 1.22 |
| CGTAAT | 1.24 |
| TGTCCA | 1.1 |
| TTTTAC | 1.35 |
| GAAATG | 1.61 |
| AGCAGC | 1.09 |
| TGACTT | 1.64 |
| CGCTCC | 1.36 |
| AAATAT | 1.26 |
| CTAAAC | 1.24 |
| GTACTC | 1.21 |
| TTTTAA | 1.22 |
| ACGAAC | 1.14 |
| ATTGCT | 1.2 |
| CTATCT | 1.39 |
| CGCTAC | 1.26 |
